Reference: PMC8079276
These are yes or no findings as the source states them, for the method shown. In cells and extracts the contact can be indirect. Here binding means that the protein was enriched with, or labelled near, the bait; the list need not be complete. Where a sequence is shown, tags or fusion partners need not be part of it.

T1: UDP-N-acetylglucosamine-peptide N-acetylglucosaminyltransferase (mouse (endogenous in MEFs)) (UniProt Q8CGY8)
T1 sequence: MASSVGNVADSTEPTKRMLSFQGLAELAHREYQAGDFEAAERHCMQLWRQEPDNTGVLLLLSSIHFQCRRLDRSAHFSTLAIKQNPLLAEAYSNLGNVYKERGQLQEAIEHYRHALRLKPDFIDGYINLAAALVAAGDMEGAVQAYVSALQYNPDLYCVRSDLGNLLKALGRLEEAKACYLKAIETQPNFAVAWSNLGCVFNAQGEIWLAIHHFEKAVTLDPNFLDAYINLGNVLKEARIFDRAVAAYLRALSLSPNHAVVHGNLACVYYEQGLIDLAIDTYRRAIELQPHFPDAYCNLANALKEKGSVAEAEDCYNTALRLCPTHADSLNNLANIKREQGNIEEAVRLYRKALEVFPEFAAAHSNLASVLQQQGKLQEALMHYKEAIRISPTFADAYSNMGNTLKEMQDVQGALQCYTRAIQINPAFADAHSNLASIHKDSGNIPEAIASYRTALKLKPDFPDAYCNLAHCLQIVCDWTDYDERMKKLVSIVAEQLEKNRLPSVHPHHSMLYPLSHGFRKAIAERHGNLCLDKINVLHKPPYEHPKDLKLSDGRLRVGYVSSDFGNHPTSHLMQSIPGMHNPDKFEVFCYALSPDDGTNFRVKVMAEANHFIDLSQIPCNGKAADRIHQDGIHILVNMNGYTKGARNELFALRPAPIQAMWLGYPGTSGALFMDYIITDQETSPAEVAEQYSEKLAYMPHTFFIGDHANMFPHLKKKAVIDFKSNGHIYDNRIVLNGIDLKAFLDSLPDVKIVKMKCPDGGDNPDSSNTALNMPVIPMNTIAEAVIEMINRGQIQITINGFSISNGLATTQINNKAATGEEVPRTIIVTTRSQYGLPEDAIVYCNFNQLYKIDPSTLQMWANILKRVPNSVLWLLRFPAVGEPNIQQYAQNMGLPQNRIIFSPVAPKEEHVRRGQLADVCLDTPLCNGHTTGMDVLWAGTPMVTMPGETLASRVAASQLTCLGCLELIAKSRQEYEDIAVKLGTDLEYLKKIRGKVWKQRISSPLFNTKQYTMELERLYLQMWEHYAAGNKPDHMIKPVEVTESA

B1: G2 phase– and S phase–expressed protein 1 (protein, UniProt Q8R080 1-741)
chain: MDAGSKKEDFLLLEDEKFDFDLSLSSSSTNEDDEVFFGPVGHKERCIAASLDLNRRVPGQPLAPGSGSPCTLSPLTGEKFVEVYKEAHLLALQIESHSRREVAQAATPQNPVNQGKETFVQDSQLKVSLFEKEQKRDRSPMSLKRETFCLPSSRVQPPMGEPQLLASPGLLSSPVSAGPAQTQSNQGLPCSSQPLPRESSTSQPPSQAGPQKRITSKLQPPRALPVRGRNLHLATEKLKKEVPASIQRTKLVNEKGSQSDVLQDKPSTAPDAASREGHPGKRSLPIPGKLGLKKTLLKPPGYTGNLTRKSSTSGSASSLESGVYRSSVAGKAKSSEQRSSIPASGSQRRTSTSKSGRIGPAASRQALPAAPARVFGRQANKADAAQTVAEQPKVPTLSPLTQQPQTPEQRGPRLDPDTETPQLNKTVSIKRRDSYLSCKTEAVSTTTNPFKVPQFSVGESPGGVTPKFSRTHRLQSWTPASRVVSSTPVRRSSGTTPQGLPGSMRTPLSTRRMSVLPTPASRRLSSLPLMAPQSMPRALVSPLCVPARRLSSEPRRRSTVRAELTQESSGSGSGGQAQGLSSDESSSPPSSVPQALNFSPEKSASPPPQGSSTGAAQGEAEPPEDTLPSEVHGGGCSHTPSEGLLLDLKLDQLTITPEAGGRDLADCPLIDFSNTPESNTALGPSSWPLIDLIMNTPDMGRNDVGKPAKAELGQLIDLGSPLIQLSPEADKENVDSPLLKF
B2: ferrochelatase (protein, UniProt P22315 54-422)
chain: TTKPQAQPERRKPKTGILMLNMGGPETLGEVQDFLQRLFLDRDLMTLPIQNKLAPFIAKRRTPKIQEQYRRIGGGSPIKMWTSKQGEGMVKLLDELSPATAPHKYYIGFRYVHPLTEEAIEEMERDGLERAIAFTQYPQYSCSTTGSSLNAIYRYYNEVGQKPTMKWSTIDRWPTHPLLIQCFADHILKELNHFPEEKRSEVVILFSAHSLPMSVVNRGDPYPQEVGATVHKVMEKLGYPNPYRLVWQSKVGPVPWLGPQTDEAIKGLCERGRKNILLVPIAFTSDHIETLYELDIEYSQVLAQKCGAENIRRAESLNGNPLFSKALADLVHSHIQSNKLCSTQLSLNCPLCVNPVCRKTKSFFTSQQL
B3: ATPase family AAA domain–containing protein 2 (protein, UniProt Q8CDM1 1-1040)
chain: MSLLKMRRHAIHSSDSTSSSSSEDDCFERRTKRNRNRAINRCLPLNFRKDEIRGIYKDRMKIGASLADVDPMQLDTSVRFDSVGGLSSHIAALKEMVVFPLLYPEVFEKFKIQPPRGCLFYGPPGTGKTLVARALANECSRGDKRVAFFMRKGADCLSKWVGESERQLRLLFDQAYQMRPAIIFFDEIDGLAPVRSSRQDQIHSSIVSTLLALMDGLDSRGEIVVIGATNRLDSIDPALRRPGRFDREFLFSLPDKNARKEILKIHTRDWNPKPVDMFLEELAEHCVGYCGADIKSICAEAALCALRRRYPQIYTTSEKLQLDLSSITISAKDFEAALQKIRPASQRAVTSPGQALSAIVKPLLQNTVHRILDALQKVFPHVEVGTNKSLNSDVSCPFLESDLAYSDDDTPSVYENGLSQKENLNFLHLNRNACYQPMSFRPRLLIVGEPGFGQSSHLAPAVIHALEKFTVYTLDIPVLFGISTTSPEEACSQMIREAKRTAPSIVYVPHIHLWWEIVGPTLKATFTTLLQTIPSFAPVLLLATSEKPYSALPEEVQELFTHDYGEIFNVQLPDKEERTKFFEDLILKQASKPPVSQKKAVLQALEVLPVAPPPEPRPLTAEEVKRLEEQEEDTFRELRIFLRNVTHRLAIDKRFRVFTKPVDPDEVPDYVTVIKQPMDLSSVISKIDLHKYLTVKDYLKDIDLICSNALEYNPDRDPGDRLIRHRACALRDTAYAIIKEELDEDFEQLCEEIQESRKKRGCSSSKYAPSYYHVMPKQNSPPVGDKKPDQEQNEKLKVPCTPVACSTPAQLKRKFHKKSKWHVGTKIKRRKISQAKDNSLNAMNSSSRSDTEDSQHTHAEHTEPGNTDESSVEESDKQNRLESNIDLKNNSSSSNIENELEEPKETTEGTELRKDRIVCRGDASASQVTDIPEDSESKEMDFLRMTLARGSQVEQQELISMEQALAILSQPTPSLVLDHKQLTNILKTVVKKSQKYNIFQLENLYAVISQCIYEHRRDYDKTALVQKMEQAVENFNCSRS
B4: tyrosine-protein phosphatase nonreceptor type 14 (protein, UniProt Q62130 1-1189)
chain: MPFGLKLRRTRRYNVLSKNCFVTRIRLLDSNVIECTLSVESTGQECLEAVAQRLELRETHYFGLWFLSKSQQARWVELEKPLKKHLDKFANEPLLFFGVMFYVPNVSRLQQEATRYQYYLQVKKDVLEGRLRCSLEQVIRLAGLAVQADFGDYNQFDSQEFLREYVLFPMDLAMEEAALEELTQKVAQEHKAHSGILPAEAELMYINEVERLDGFGQEIFPVKDSHGNSVHLGIFFMGIFVRNRVGRQAVIYRWNDIGSVTHSKAAILLELIDKEETALFHTDDIENAKYISRLFTTRHKFYKQNKICTEQSNSPPPIRRQPTWSRSSLPRQQPYILPPMHVQCSEHYSETHTSQDSIFPGNEEALYCRSHNSLDLNYLNGTVTNGSVCSVHSVNSLSCSQSFIQASPVSSNLSIPGSDIMRADYIPSHRHSTIIVPSYRPTPDYETVMRQMKRGLMHADSQSRSLRNLNIINTHAYNQPEELVYSQPEMRERHPYTVPYAHQGCYGHKLVSPSDQMNPQNCAMPIKPGASSISHTVSTPELANMQLQGAQHYSTAHMLKNYLFRPPPPYPRPRPATSTPDLASHRHKYVSGSSPDLVTRKVQLSVKTFQEDSSPVVHQSLQEVSEPLTATKHHGGGGGTVNKRHSLEVMNSMVRGMEAMTLKSLNIPMARRNTLREQGPSEETGGHEVHGLPQYHHKKTFSDATMLIHSSESEEEEETLEAAPQVPVLREKVEYSAQLQAALARIPNRPPPEYPGPRKSVSNGALRQDQGTPLPAMARCRVLRHGPSKALSVSRAEQLAVNGASLGPSISEPDLTSVKERVKKEPVKERPVSEMFSLEDSIIEREMMIRNLEKQKMTGPQAQKRPLMLAALNGLSVARVSGREDGHHDATRVPIDERLRALKKKLEDGMVFTEYEQIPNKKANGVFSTATLPENAERSRIREVVPYEENRVELIPTKENNTGYINASHIKVVVGGSEWHYIATQGPLPHTCHDFWQMVWEQGVNVIAMVTAEEEGGRTKSHRYWPKLGSKHSSATYGKFKVTTKFRTDSGCYATTGLKVKHLLSGQERTVWHLQYTDWPHHGCPEDVQGFLSYLEEIQSVRRHTNSVLEGIRTRHPPIVVHCSAGVGRTGVVILSELMIYCLEHNEKVEVPTMLRFLREQRMFMIQTIAQYKFVYQVLVQFLQNSRLI
B5: asparagine synthetase (protein, UniProt Q61024 1-561)
chain: MCGIWALFGSDDCLSVQCLSAMKIAHRGPDAFRFENVNGYTNCCFGFHRLAVVDPLFGMQPIRVRKYPYLWLCYNGEIYNHKALQQRFEFEYQTNVDGEIILHLYDKGGIEKTICMLDGVFAFILLDTANKKVFLGRDTYGVRPLFKAMTEDGFLAVCSEAKGLVSLKHSTTPFLKVEPFLPGHYEVLDLKPNGKVASVEMVKYHHCTDEPLHAIYDSVEKLFPGFDLETVKNNLRILFDNAIKKRLMTDRRIGCLLSGGLDSSLVAASLLKQLKEAQVQYPLQTFAIGMEDSPDLLAARKVANYIGSEHHEVLFNSEEGIQALDEVIFSLETYDITTVRASVGMYLISKYIRKNTDSVVIFSGEGSDELTQGYIYFHKAPSPEKAEEESERLLKELYLFDVLRADRTTAAHGLELRVPFLDHRFSSYYLSLPPDMRIPKNGIEKHLLRETFEDCNLLPKEILWRPKEAFSDGITSVKNSWFKILQDYVEHQVDDEMMSAASQKFPFNTPKTKEGYFYRQIFERHYPGRADWLTHYWMPKWINATDPSARTLTHYKSAAKA
B6: phosphoenolpyruvate carboxykinase 2 (protein, UniProt Q8BH04 33-640)
chain: LSGDMSQLPAGVRDFVARSAHLCQPEGIHICDGTEAENTAILALLEEQGLIRKLPKYKNCWLARTDPKDVARVESKTVIVTPSQRDTVPLLAGGARGQLGNWMSPDEFQRAVDERFPGCMQGRIMYVLPFSMGPVGSPLSRIGVQLTDSAYVVASMRIMTRLGTPVLQALGDGDFIKCLHSVGQPLTGHGDPVGQWPCNPEKTLIGHVPDQREIVSFGSGYGGNSLLGKKCFALRIASRLARDEGWLAEHMLILGITNPAGKKRYVAAAFPSACGKTNLAMMRPALPGWKVECVGDDIAWMRFDSEGQLRAINPENGFFGVAPGTSAATNPNAMATIQSNTLFTNVAETSDGGVYWEGIDQPLPPGVTITSWLGKPWKPGDKEPCAHPNSRFCVPARQCPIMDPAWEAPEGVPIDAIIFGGRRPKGVPLVYEAFNWRHGVFVGSAMRSESTAAAEHKGKTIMHDPFAMRPFFGYNFGRYLEHWLSMEGQKGARLPRIFHVNWFRRDEAGRFLWPGFGENARVLDWICRRLEGEDSAQETPIGLVPKEGALDLSGLSAVDTSQLFSIPKDFWEQEVRDIRGYLTEQVNQDLPKEVLAELEALEGRVQKM
B7: Aimp1 (protein, UniProt P31230 1-310)
chain: MATNDAVLKRLEQKGAEADQIIEYLKQQVALLKEKAILQATMREEKKLRVENAKLKKEIEELKQELILAEIHNGVEQVRVRLSTPLQTNCTASESVVQSPSVATTASPATKEQIKAGEEKKVKEKTEKKGEKKEKQQSAAASTDSKPIDASRLDLRIGCIVTAKKHPDADSLYVEEVDVGEAAPRTVVSGLVNHVPLEQMQNRMVVLLCNLKPAKMRGVLSQAMVMCASSPEKVEILAPPNGSVPGDRITFDAFPGEPDKELNPKKKIWEQIQPDLHTNAECVATYKGAPFEVKGKGVCRAQTMANSGIK

molecular target: T1, UDP-N-acetylglucosamine-peptide N-acetylglucosaminyltransferase (mouse (endogenous in MEFs)); assay: affinity purification with mass spectrometry; endogenous OGT immunoprecipitated (antibody AL24, protein G magnetic beads, TCL buffer: 50 mM Tris HCl, 150 mM NaCl, pH 7.5, 1% NP-40, 2 mM EDTA) from a 1:1:1 mix of SILAC-labelled lysates of WT, H2O2-treated (2.5 mM, 1.5 h) and OGT-null MEFs, precleared with rabbit IgG; in-gel trypsin digestion, LC-MS/MS; interactor if log2 WT or H2O2/null >=1 in 2 or more replicates

**Q.** With B1 as the binder, how does the binding read?
**A.** binds

**Q.** For B2, which binding is on record?
**A.** binds

**Q.** B3 was tested. Which binding did it give?
**A.** binds

**Q.** With B4 as the binder, how does the binding read?
**A.** binds

**Q.** With B5 as the binder, how does the binding read?
**A.** binds

**Q.** For B6, which binding is on record?
**A.** binds

**Q.** Which binding does the source give for B7 here?
**A.** binds
